Measured values published in PubChem BioAssay AID330 (DTP/NCI, 2004).
The list shows only some results of the screen, not a fair sample: it gathers tests that were run many times, whatever their T/C, doses with no T/C, and many T/C values between a quarter and a half above the control. Other doses and runs of a compound stand elsewhere. T/C: endpoint of the treated group in % of that of the vehicle group. Some entries give survivors of the animals treated and no T/C: the source holds a T/C of zero for them, seemingly a mark for toxic or unscored doses. Some survivor counts are full or nearly so, which does not show that the dose was tolerated: the source hardly ever lists a survival T/C far under the control, and the zero likely stands for such cases as well. Counts of survivors are from the toxicity check (mostly the fifth day) where no day follows; animals may have died later. Schedules are NCI's codes, read here as Q, the interval in days (D) or hours (H), X, the number of doses. For survival time, this PubChem deposit counts one and a half times the control or more as active, and values a quarter to a half above the control carry no call in these data; other NCI protocols may use other cut-offs. Signs of the kind (2×) stand for listed records that agree. Some T/C values are followed by the survivors on the day toxicity was checked, most often the fifth; where none is given, no animal had died by that day. Some doses were run more than once; the results are listed from low to high.

Test system: P388 leukemia ip, CD2F1 mice, survival T/C
Assay: NCI In Vivo Anticancer Drug Screen. Data for tumor model P388 Leukemia (intraperitoneal) in CD2F1 (CDF1) mice
Conditions: T/C endpoint: median survival time, higher T/C = longer survival
[1] = dose: 25.0 mg/kg/injection, schedule: Q04DX003 (ip), vehicle: saline
[2] = dose: 160.0 mg/kg/injection, schedule: Q01DX009 (ip), vehicle: saline with Tween-80
[3] = dose: 50.0 mg/kg/injection, schedule: Q01DX009 (ip), vehicle: Klucel (hydroxypropylcellulose) (HPC)
[4] = dose: 12.5 mg/kg/injection, schedule: Q01DX009 (ip), vehicle: Klucel (hydroxypropylcellulose) (HPC)
[5] = dose: 25.0 mg/kg/injection, schedule: Q01DX009 (ip), vehicle: Klucel (hydroxypropylcellulose) (HPC)
[6] = dose: 100.0 mg/kg/injection, schedule: Q01DX009 (ip), vehicle: Klucel (hydroxypropylcellulose) (HPC)
[7] = dose: 200.0 mg/kg/injection, schedule: Q01DX009 (ip), vehicle: Klucel (hydroxypropylcellulose) (HPC)

Cc1c(-c2ccccc2)ccnc1/C=N/NC(=S)Nc1ccccc1
survivor count (dose: 1.56 mg/kg/injection, schedule: Q01DX009 (ip), vehicle: saline): 4 of 6
survivor count (dose: 3.12 mg/kg/injection, schedule: Q01DX009 (ip), vehicle: saline): 5 of 6
survivor count (dose: 12.5 mg/kg/injection, schedule: Q01DX009 (ip), vehicle: saline with Tween-80): 5 of 6
survivor count (dose: 100.0 mg/kg/injection, schedule: Q01DX009 (ip), vehicle: saline): 6 of 6
survivor count (dose: 200.0 mg/kg/injection, schedule: Q01DX009 (ip), vehicle: saline): 6 of 6

C=CCc1ccc(OCCOC(=O)Nc2cccc(SC)c2)c(OC)c1
survivor count (dose: 50.0 mg/kg/injection, schedule: Q01DX009 (ip), vehicle: DMSO): 6 of 6
survivor count (dose: 100.0 mg/kg/injection, schedule: Q01DX009 (ip), vehicle: DMSO): 6 of 6
survivor count (dose: 200.0 mg/kg/injection, schedule: Q01DX009 (ip), vehicle: DMSO): 2 of 6

C(=C\c1cc2cc(C3=NCCN3)ccc2o1)/c1ccc(C2=NCCN2)cc1
T/C (dose: 12.5 mg/kg/injection, schedule: Q04DX003 (ip), vehicle: saline): 127 % of control
T/C [1]: 128 % of control
T/C (dose: 50.0 mg/kg/injection, schedule: Q04DX003 (ip), vehicle: saline): 140 % of control [5 of 6 alive]
survivor count (dose: 200.0 mg/kg/injection, schedule: Q04DX003 (ip), vehicle: saline): 4 of 6
survivor count (dose: 400.0 mg/kg/injection, schedule: Q04DX003 (ip), vehicle: saline): 0 of 6

C=CC(=NC(C)(C)C)Nc1ccccc1C(=O)OC
survivor count (dose: 100.0 mg/kg/injection, schedule: Q01DX009 (ip), vehicle: saline with Tween-80): 3 of 6
survivor count (dose: 200.0 mg/kg/injection, schedule: Q01DX009 (ip), vehicle: saline with Tween-80): 0 of 6

O=C1C2OC2C(O)(CCN(Cc2ccc3c(c2)OCO3)C(=O)C(F)(F)F)C2OC12 (centres undefined)
survivor count (dose: 100.0 mg/kg/injection, schedule: Q01DX001 (ip), vehicle: saline): 0 of 6
survivor count (dose: 200.0 mg/kg/injection, schedule: Q01DX001 (ip), vehicle: saline): 0 of 6
survivor count (dose: 400.0 mg/kg/injection, schedule: Q01DX001 (ip), vehicle: saline): 1 of 6

C=C1C(=O)OC2/C=C(\C)C(O)CC(O)C(C)(O)CC(OC(=O)/C(C)=C/C)C12 (centres undefined)
T/C (dose: 80.0 mg/kg/injection, schedule: Q01DX009 (ip), vehicle: saline with Tween-80): 125 % of control [5 of 6 alive]
T/C [2]: 137 % of control
survivor count [2]: 6 of 6

CCCCCCCCCCCCCCS[As](C)C
survivor count (dose: 200.0 mg/kg/injection, schedule: Q04DX002 (ip), vehicle: Klucel (hydroxypropylcellulose) (HPC)): 5 of 5

CSc1ncnc2c1ncn2C1OC(CO)C(O)C1O (centres undefined)
T/C (dose: 32.0 mg/kg/injection, schedule: Q01DX010 (ip), vehicle: saline): 127 and 129 % of control
T/C (dose: 123.0 mg/kg/injection, schedule: Q01DX001 (ip), vehicle: saline): 125 and 141 % of control [8 of 9 alive]
T/C (dose: 185.0 mg/kg/injection, schedule: Q01DX001 (ip), vehicle: saline): 134 % of control [8 of 9 alive]
survivor count (dose: 275.0 mg/kg/injection, schedule: Q01DX001 (ip), vehicle: saline): 2 of 4

CC1=C2C(=CO[C@H](C)[C@H]2C)C(=O)C(C(=O)O)=C1O
T/C (dose: 25.0 mg/kg/injection, schedule: Q01DX009 (ip), vehicle: saline): 136 % of control
survivor count [3]: 2 of 6
T/C (dose: 50.0 mg/kg/injection, schedule: Q01DX009 (ip), vehicle: saline): 128 % of control

CCOC(=O)CSc1ccc(C)cc1C(O)(C(F)(F)F)C(F)(F)F
survivor count (dose: 50.0 mg/kg/injection, schedule: Q01DX009 (ip), vehicle: saline with Tween-80): 1 of 6

COc1cccc2c1C(=O)c1c(O)c3c(c(O)c1C2=O)[C@@H](OC)[C@@](O)(C(=O)CO)C[C@@H]3OC1CC(N)C(O)C(C)O1 (some centres undefined)
T/C (dose: 6.25 mg/kg/injection, schedule: Q04DX003 (ip), vehicle: water, evaluated on day 30): 125 % of control
T/C (dose: 6.25 mg/kg/injection, schedule: Q04DX003 (ip), vehicle: water, evaluated on day 50): 141 % of control
T/C (dose: 12.5 mg/kg/injection, schedule: Q04DX003 (ip), vehicle: water): 127 % of control
survivor count (dose: 50.0 mg/kg/injection, schedule: Q04DX003 (ip), vehicle: water): 6 of 6 on day 9

Cc1c2c(ccc3ccccc32)c[n+]2ccccc12
survivor count (dose: 25.0 mg/kg/injection, schedule: Q04DX003 (ip), vehicle: other): 2 of 6
T/C [1]: 136 % of control [5 of 6 alive]
survivor count (dose: 50.0 mg/kg/injection, schedule: Q04DX003 (ip), vehicle: other): 0 of 6
survivor count (dose: 100.0 mg/kg/injection, schedule: Q04DX003 (ip), vehicle: other): 0 of 6

COc1cc(C2c3cc4c(cc3C3OC(=O)C2C3CO)OCO4)cc(OC)c1OC (centres undefined)
T/C (dose: 1.0 mg/kg/injection, schedule: Q01DX009 (ip), vehicle: Klucel (hydroxypropylcellulose) (HPC)): 140 % of control
T/C (dose: 2.5 mg/kg/injection, schedule: Q01DX009 (ip), vehicle: Klucel (hydroxypropylcellulose) (HPC)): 140 % of control
T/C (dose: 5.5 mg/kg/injection, schedule: Q01DX009 (ip), vehicle: Klucel (hydroxypropylcellulose) (HPC)): 130 % of control
T/C (dose: 8.0 mg/kg/injection, schedule: Q01DX009 (ip), vehicle: Klucel (hydroxypropylcellulose) (HPC)): 137 % of control
T/C [4]: 127 % of control (2×)
T/C (dose: 18.7 mg/kg/injection, schedule: Q01DX009 (ip), vehicle: Klucel (hydroxypropylcellulose) (HPC)): 137 % of control
survivor count [5]: 5 of 6
survivor count [3]: 4 of 6
survivor count [6]: 1 of 6
survivor count [7]: 0 of 6

Nc1ccccc1OCCCn1cc(-c2ccc(Cl)c(Cl)c2)c(N)nc1=O
survivor count (dose: 60.0 mg/kg/injection, schedule: Q01DX005 (ip), vehicle: Klucel (hydroxypropylcellulose) (HPC)): 6 of 6
survivor count (dose: 120.0 mg/kg/injection, schedule: Q01DX005 (ip), vehicle: Klucel (hydroxypropylcellulose) (HPC)): 6 of 6
survivor count (dose: 240.0 mg/kg/injection, schedule: Q01DX005 (ip), vehicle: Klucel (hydroxypropylcellulose) (HPC)): 6 of 6

COC(=O)C1(C)CCCC2(C)C1CCC13C=C(C(C)C)C(CC1C(=O)O)CC23 (centres undefined)
survivor count (dose: 400.0 mg/kg/injection, schedule: Q04DX003 (ip), vehicle: saline with Tween-80): 2 of 6

Cc1cc(NS(=O)(=O)c2ccc(N)cc2)no1.[Ag]
survivor count [3]: 1 of 6
survivor count [6]: 0 of 6
survivor count [7]: 0 of 6

COc1ccc(C(C)=O)cc1CSC(=S)N1CCSCC1
survivor count (dose: 120.0 mg/kg/injection, schedule: Q01DX005 (ip), vehicle: saline with Tween-80): 6 of 6

CCCN1C=C(C(=O)OCC)C(N)=C(C#N)/C1=C\C=C(/C#N)C(=O)OCC
survivor count (dose: 25.0 mg/kg/injection, schedule: Q01DX001 (ip), vehicle: Klucel (hydroxypropylcellulose) (HPC)): 6 of 6
survivor count (dose: 100.0 mg/kg/injection, schedule: Q01DX001 (ip), vehicle: Klucel (hydroxypropylcellulose) (HPC)): 6 of 6
survivor count (dose: 200.0 mg/kg/injection, schedule: Q01DX001 (ip), vehicle: Klucel (hydroxypropylcellulose) (HPC)): 6 of 6
survivor count (dose: 400.0 mg/kg/injection, schedule: Q01DX001 (ip), vehicle: Klucel (hydroxypropylcellulose) (HPC)): 5 of 6

C[N+](C)(CCCCCCOc1c(Br)cc(Br)cc1Br)Cc1ccc(Br)o1
survivor count (dose: 6.25 mg/kg/injection, schedule: Q01DX009 (ip), vehicle: Klucel (hydroxypropylcellulose) (HPC)): 3 of 6
survivor count [4]: 2 of 6
survivor count [5]: 0 of 6

O=C1C2C3C=CC(C3)C2C(=O)N1c1ccc2nc(SC3C=CCCC3)sc2c1 (centres undefined)
survivor count [6]: 6 of 6
